# The list shows a part of the results.
# B1: RbmA (Vibrio cholerae), A0A2H4NFB8 (protein)
# chain: MSNFKGSIMNKRHYYLASCLALLFSTASYAEVDCELQPVIEANLSLNQNQLASNGGYISSQLGIRNESCETVKFKYWLSIKGPEGIYFPAKAVVGVDTAQQESDALTDGRMLNVTRGFWVPEYMADGKYTVSLQVVAENGEVFKANQEFVKGGDLNSLPELNGLTIDIKNQFGINSVESTGGFVPFTIDLNNGREGEAKVEFWMTAVGPDGLIIPVHSREKWMIIAGNTFSKVRGINFDKSYPAGEYTINAQVVDIVSGERVEQLMTVVKK
# Legend:
# Assay in all cases: glycan array binding signal (z-score within array); higher = stronger binding
# Conditions in all cases: glycan notation: IUPAC condensed, linker removed
# [1] = biological target: Gal(b1-4)GlcNAc(b1-3)Gal(b1-4)GlcNAc(b1-2)[Gal(b1-4)GlcNAc(b1-3)Gal(b1-4)GlcNAc(b1-6)]Man(a1-6)[Gal(b1-4)GlcNAc(b1-3)Gal(b1-4)GlcNAc(b1-2)Man(a1-3)]Man(b1-4)GlcNAc(b1-4)GlcNAc
# How it was run: (§1)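 The binding signal is a Z-score computed within each array. Data were drawn from 3228 arrays in the Consortium for Functional Glycomics database, restricted to those with a known protein sequence. Scores were averaged over arrays of the same protein sequence at different concentrations or buffers, and over linkers, and negative values can be taken as non-binding.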
# [2] = biological target: Gal(b1-4)GlcNAc(b1-3)Gal(b1-4)GlcNAc(b1-2)[Gal(b1-4)GlcNAc(b1-3)Gal(b1-4)GlcNAc(b1-6)]Man(a1-6)[Gal(b1-4)GlcNAc(b1-3)Gal(b1-4)GlcNAc(b1-2)Man(a1-3)]Man(b1-4)GlcNAc(b1-4)[Fuc(a1-6)]GlcNAc
# How it was run: as §1
# [3] = biological target: Gal(b1-4)GlcNAc(b1-3)Gal(b1-4)GlcNAc(b1-3)Gal(b1-4)GlcNAc
# How it was run: as §1
# [4] = biological target: Gal(b1-4)GlcNAc(b1-3)Gal(b1-4)GlcNAc(b1-3)Gal(b1-4)GlcNAc(b1-2)Man(a1-3)[Gal(b1-4)GlcNAc(b1-3)Gal(b1-4)GlcNAc(b1-3)Gal(b1-4)GlcNAc(b1-2)Man(a1-6)]Man(b1-4)GlcNAc(b1-4)GlcNAc
# How it was run: as §1
# [5] = biological target: Gal(b1-4)GlcNAc(b1-3)Gal(b1-4)GlcNAc(b1-3)Gal(b1-4)GlcNAc(b1-2)Man(a1-3)[Gal(b1-4)GlcNAc(b1-3)Gal(b1-4)GlcNAc(b1-3)Gal(b1-4)GlcNAc(b1-2)Man(a1-6)]Man(b1-4)GlcNAc(b1-4)[Fuc(a1-6)]GlcNAc
# How it was run: as §1
# [6] = biological target: Gal(b1-4)GlcNAc(b1-3)Gal(b1-4)GlcNAc(b1-3)Gal(b1-4)GlcNAc(b1-2)[Gal(b1-4)GlcNAc(b1-3)Gal(b1-4)GlcNAc(b1-3)Gal(b1-4)GlcNAc(b1-6)]Man(a1-6)[Gal(b1-4)GlcNAc(b1-3)Gal(b1-4)GlcNAc(b1-3)Gal(b1-4)GlcNAc(b1-2)Man(a1-3)]Man(b1-4)GlcNAc(b1-4)[Fuc(a1-6)]GlcNAc
# How it was run: as §1
# [7] = biological target: Gal(b1-4)GlcNAc(b1-3)Gal(b1-4)GlcNAc(b1-3)Gal(b1-4)GlcNAc(b1-3)Gal(b1-4)GlcNAc(b1-2)Man(a1-3)[Gal(b1-4)GlcNAc(b1-3)Gal(b1-4)GlcNAc(b1-3)Gal(b1-4)GlcNAc(b1-3)Gal(b1-4)GlcNAc(b1-2)Man(a1-6)]Man(b1-4)GlcNAc(b1-4)GlcNAc
# How it was run: as §1
# [8] = biological target: Gal(b1-4)GlcNAc(b1-3)Gal(b1-4)GlcNAc(b1-3)Gal(b1-4)GlcNAc(b1-3)Gal(b1-4)GlcNAc(b1-2)Man(a1-3)[Gal(b1-4)GlcNAc(b1-3)Gal(b1-4)GlcNAc(b1-3)Gal(b1-4)GlcNAc(b1-3)Gal(b1-4)GlcNAc(b1-2)Man(a1-6)]Man(b1-4)GlcNAc(b1-4)[Fuc(a1-6)]GlcNAc
# How it was run: as §1
# [9] = biological target: Gal(b1-4)GlcNAc(b1-3)Gal(b1-4)GlcNAc(b1-3)Gal(b1-4)GlcNAc(b1-3)Gal(b1-4)GlcNAc(b1-2)[Gal(b1-4)GlcNAc(b1-3)Gal(b1-4)GlcNAc(b1-3)Gal(b1-4)GlcNAc(b1-3)Gal(b1-4)GlcNAc(b1-6)]Man(a1-6)[Gal(b1-4)GlcNAc(b1-3)Gal(b1-4)GlcNAc(b1-3)Gal(b1-4)GlcNAc(b1-3)Gal(b1-4)GlcNAc(b1-2)Man(a1-3)]Man(b1-4)GlcNAc(b1-4)[Fuc(a1-6)]GlcNAc
# How it was run: as §1
# [10] = biological target: Gal(b1-4)GlcNAc(b1-3)Gal(b1-4)GlcNAc(b1-3)Gal(b1-4)GlcNAc(b1-3)Gal(b1-4)GlcNAc(b1-3)Gal(b1-4)GlcNAc(b1-2)Man(a1-3)[Gal(b1-4)GlcNAc(b1-3)Gal(b1-4)GlcNAc(b1-3)Gal(b1-4)GlcNAc(b1-3)Gal(b1-4)GlcNAc(b1-3)Gal(b1-4)GlcNAc(b1-2)Man(a1-6)]Man(b1-4)GlcNAc(b1-4)GlcNAc
# How it was run: as §1
# [11] = biological target: Gal(b1-4)GlcNAc(b1-3)Gal(b1-4)GlcNAc(b1-3)Gal(b1-4)GlcNAc(b1-3)Gal(b1-4)GlcNAc(b1-3)Gal(b1-4)GlcNAc(b1-2)Man(a1-3)[Gal(b1-4)GlcNAc(b1-3)Gal(b1-4)GlcNAc(b1-3)Gal(b1-4)GlcNAc(b1-3)Gal(b1-4)GlcNAc(b1-3)Gal(b1-4)GlcNAc(b1-2)Man(a1-6)]Man(b1-4)GlcNAc(b1-4)[Fuc(a1-6)]GlcNAc
# How it was run: as §1
# [12] = biological target: Gal(b1-4)GlcNAc(b1-3)Gal(b1-4)GlcNAc(b1-3)Gal(b1-4)GlcNAc(b1-3)Gal(b1-4)GlcNAc(b1-3)Gal(b1-4)GlcNAc(b1-2)[Gal(b1-4)GlcNAc(b1-3)Gal(b1-4)GlcNAc(b1-3)Gal(b1-4)GlcNAc(b1-3)Gal(b1-4)GlcNAc(b1-3)Gal(b1-4)GlcNAc(b1-6)]Man(a1-6)[Gal(b1-4)GlcNAc(b1-3)Gal(b1-4)GlcNAc(b1-3)Gal(b1-4)GlcNAc(b1-3)Gal(b1-4)GlcNAc(b1-3)Gal(b1-4)GlcNAc(b1-2)Man(a1-3)]Man(b1-4)GlcNAc(b1-4)[Fuc(a1-6)]GlcNAc
# How it was run: as §1
# [13] = biological target: Gal(b1-4)GlcNAc(b1-3)Gal(b1-4)GlcNAc(b1-3)Gal(b1-4)GlcNAc(b1-3)Gal(b1-4)GlcNAc(b1-3)Gal(b1-4)GlcNAc(b1-3)Gal(b1-4)GlcNAc(b1-2)Man(a1-3)[Gal(b1-4)GlcNAc(b1-3)Gal(b1-4)GlcNAc(b1-3)Gal(b1-4)GlcNAc(b1-3)Gal(b1-4)GlcNAc(b1-3)Gal(b1-4)GlcNAc(b1-3)Gal(b1-4)GlcNAc(b1-2)Man(a1-6)]Man(b1-4)GlcNAc(b1-4)GlcNAc
# How it was run: as §1
# [14] = biological target: Gal(b1-4)GlcNAc(b1-3)Gal(b1-4)GlcNAc(b1-3)GalNAc
# How it was run: as §1
# [15] = biological target: Gal(b1-4)GlcNAc(b1-3)Gal(b1-4)GlcNAc(b1-3)[Gal(b1-4)GlcNAc(b1-3)Gal(b1-4)GlcNAc(b1-6)]GalNAc
# How it was run: as §1
# [16] = biological target: Gal(b1-4)GlcNAc(b1-3)Gal(b1-4)GlcNAc(b1-6)[Gal(b1-3)]GalNAc
# How it was run: as §1
# [17] = biological target: Gal(b1-4)GlcNAc(b1-3)Gal(b1-4)[Fuc(a1-3)GlcNAc(b1-6)]Gal(b1-4)Glc
# How it was run: as §1
# [18] = biological target: Gal(b1-4)GlcNAc(b1-3)Gal(b1-4)[Fuc(a1-3)]GlcNAc(b1-3)Gal(b1-4)[Fuc(a1-3)]GlcNAc
# How it was run: as §1
# [19] = biological target: Gal(b1-4)GlcNAc(b1-3)GalNAc
# How it was run: as §1
# [20] = biological target: Gal(b1-4)GlcNAc(b1-3)[Gal(b1-4)GlcNAc(b1-6)]Gal(b1-4)GlcNAc
# How it was run: as §1
# [21] = biological target: Gal(b1-4)GlcNAc(b1-3)[GlcNAc(b1-6)]Gal(b1-4)GlcNAc
# How it was run: as §1
# [22] = biological target: Gal(b1-4)GlcNAc(b1-6)Gal(b1-4)GlcNAc
# How it was run: as §1
# [23] = biological target: Gal(b1-4)GlcNAc(b1-6)GalNAc
# How it was run: as §1
# [24] = biological target: Gal(b1-4)GlcNAc(b1-6)[Gal(b1-3)]GalNAc
# How it was run: as §1
# [25] = biological target: Gal(b1-4)GlcNAc(b1-6)[Gal(b1-4)GlcNAc(b1-3)]GalNAc
# How it was run: as §1
# Gal(b1-4)GlcNAc6P = biological target: Gal(b1-4)GlcNAc6P
# How it was run: as §1
# Gal(b1-6)Gal = biological target: Gal(b1-6)Gal
# How it was run: as §1
# Gal3S(b1-3)GalNAc = biological target: Gal3S(b1-3)GalNAc
# How it was run: as §1
# Gal3S(b1-3)GlcNAc = biological target: Gal3S(b1-3)GlcNAc
# How it was run: as §1
# [26] = biological target: Gal3S(b1-3)[Fuc(a1-4)]GalNAc
# How it was run: as §1
# [27] = biological target: Gal3S(b1-3)[Fuc(a1-4)]GlcNAc
# How it was run: as §1
# Gal3S(b1-4)Glc = biological target: Gal3S(b1-4)Glc
# How it was run: as §1
# Gal3S(b1-4)Glc6S = biological target: Gal3S(b1-4)Glc6S
# How it was run: as §1
# Gal3S(b1-4)GlcNAc = biological target: Gal3S(b1-4)GlcNAc
# How it was run: as §1
# [28] = biological target: Gal3S(b1-4)[Fuc(a1-3)]Glc6S
# How it was run: as §1
# [29] = biological target: Gal3S(b1-4)[Fuc(a1-3)]GlcNAc
# How it was run: as §1
# [30] = biological target: Gal3S(b1-4)[Fuc(a1-3)]GlcNAc6S
# How it was run: as §1
binder,measurement,setting,value
B1,glycan array binding signal (z-score),[1],0.839
same,glycan array binding signal (z-score),[2],0.171
same,glycan array binding signal (z-score),[3],0.005
same,glycan array binding signal (z-score),[4],0.826
same,glycan array binding signal (z-score),[5],0.84
same,glycan array binding signal (z-score),[6],0.801
same,glycan array binding signal (z-score),[7],0.191
same,glycan array binding signal (z-score),[8],0.472
same,glycan array binding signal (z-score),[9],4.03
same,glycan array binding signal (z-score),[10],5.93
same,glycan array binding signal (z-score),[11],1.64
same,glycan array binding signal (z-score),[12],7.99
same,glycan array binding signal (z-score),[13],-0.267
same,glycan array binding signal (z-score),[14],0.081
same,glycan array binding signal (z-score),[15],-0.3
same,glycan array binding signal (z-score),[16],-0.926
same,glycan array binding signal (z-score),[17],-0.866
same,glycan array binding signal (z-score),[18],0.661
same,glycan array binding signal (z-score),[19],-0.505
same,glycan array binding signal (z-score),[20],-0.496
same,glycan array binding signal (z-score),[21],-0.799
same,glycan array binding signal (z-score),[22],0.566
same,glycan array binding signal (z-score),[23],-0.865
same,glycan array binding signal (z-score),[24],-0.35
same,glycan array binding signal (z-score),[25],-0.156
same,glycan array binding signal (z-score),Gal(b1-4)GlcNAc6P,-0.433
same,glycan array binding signal (z-score),Gal(b1-6)Gal,-0.486
same,glycan array binding signal (z-score),Gal3S(b1-3)GalNAc,-0.835
same,glycan array binding signal (z-score),Gal3S(b1-3)GlcNAc,0.506
same,glycan array binding signal (z-score),[26],0.825
same,glycan array binding signal (z-score),[27],1.05
same,glycan array binding signal (z-score),Gal3S(b1-4)Glc,-0.285
same,glycan array binding signal (z-score),Gal3S(b1-4)Glc6S,-0.319
same,glycan array binding signal (z-score),Gal3S(b1-4)GlcNAc,-0.123
same,glycan array binding signal (z-score),[28],0.205
same,glycan array binding signal (z-score),[29],-0.325
same,glycan array binding signal (z-score),[30],-0.157

# 3 records drawn at random from the list so far, as already listed:
binder,measurement,setting,value
B1,glycan array binding signal (z-score),[8],0.472
same,glycan array binding signal (z-score),[28],0.205
same,glycan array binding signal (z-score),[25],-0.156

# Reference: the supplement of paper PMC8728848
